Patent US20110225663A1, “METHOD FOR PRODUCING EUKARYOTIC ORGANISMS WITH ENHANCED PATHOGEN RESISTANCE AND/OR RESISTANCE TO STRESS AND EUKARYOTIC TRANSGENIC ORGANISMS WITH ENHANCED PATHOGEN RESISTANCE AND/OR RESISTANCE TO STRESS” (WESTFAELISCHE WILHELMS-UNIVERSITAET MUENSTER, priority 2008, published 2011)
At least one structure is not confirmed: it was looked up by name or label, or the drawing left a doubt.

Test system: tobacco leaves infected with P. nicotianae (ROS / H2O2 production)
Assay: Inhibitor studies: defence-induced H2O2/ROS production in tobacco leaves after infection with P. nicotianae
Type: in vivo
Conditions: tobacco leaves treated with 25-50 mM GN6P

Question: For N[C@H]1C(O)O[C@H](COP(=O)(O)O)[C@@H](O)[C@@H]1O (stereo partly shown) [GN6P, Glucosamine-6 phosphate], which “detectable ROS production” value is on record?
Answer: The value was “did not result in detectable ROS production”.
